Cell viability data for six compounds are collected here from the supplement of paper PMC9454738.

± gives the standard deviation of the averaged measurements. Some of the results follow. Single values are uncertain here, since repeats match poorly.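 Test systems: triple-negative MDA-MB-231 breast cancer cells and their brain-metastatic MDA-MB-231BRM derivative, each stably carrying empty vector, full-length GLI1 or truncated tGLI1. Viability after 48 h was read by CellTiter-Blue and expressed against 1% DMSO vehicle. A compound was tGLI1-selective if it lowered viability 20% more in tGLI1 cells than in vector and GLI1 cells.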

Test systems include MDA-MB-231 GLI1; MDA-MB-231 Vector; MDA-MB-231 tGLI1; MDA-MB-231BRM GLI1; MDA-MB-231BRM Vector; MDA-MB-231BRM tGLI1.
Common to all, as to assay: cell viability relative to vehicle (DMSO) control (fraction); higher = more viable cells (less growth inhibition)
Holding throughout (conditions): treatment time 48 h

With `CC(C)OC(=O)C(C(=O)OC(C)C)=C1SC=CS1` [Malotilate], the cell viability with MDA-MB-231 GLI1 (0.05 µM) worked out at 1.48; in the assay with MDA-MB-231 GLI1 (0.5 µM), 0.984; in the assay with MDA-MB-231 GLI1 (5 µM), 1.18; with MDA-MB-231 Vector (0.05 µM), 1.67; in the assay on MDA-MB-231 Vector (0.5 µM), 1.25; in the assay on MDA-MB-231 Vector (5 µM), 1.18. For the same compound, the cell viability was determined as 1.33 with MDA-MB-231 tGLI1 (0.05 µM); 1.04 in the assay with MDA-MB-231 tGLI1 (0.5 µM); 1.12 in the assay with MDA-MB-231 tGLI1 (5 µM); 0.987 with MDA-MB-231BRM GLI1 (0.05 µM); 1.08 in the assay with MDA-MB-231BRM GLI1 (0.5 µM); 0.973 in the assay on MDA-MB-231BRM GLI1 (5 µM). The cell viability in the assay with MDA-MB-231BRM Vector (0.05 µM) was 0.978; in the assay with MDA-MB-231BRM Vector (0.5 µM), 1.03; with MDA-MB-231BRM Vector (5 µM) it was 1.02; in the assay with MDA-MB-231BRM tGLI1 (0.05 µM) it was 1.05; with MDA-MB-231BRM tGLI1 (0.5 µM), 1.01; in the assay on MDA-MB-231BRM tGLI1 (5 µM), 1.05.

Consider `Cc1ccc(NC(=O)c2ccc(CN3CCN(C)CC3)cc2)cc1Nc1nc(-c2cccnc2)cs1` [Masitinib (AB1010)], for which the cell viability came to 1.16 ± 0.027 in the assay on MDA-MB-231 GLI1 (0.05 µM); 1.32 ± 0.29 in the assay with MDA-MB-231 GLI1 (0.5 µM); 1.19 ± 0.05 with MDA-MB-231 GLI1 (5 µM); 1.05 ± 0.3 in the assay with MDA-MB-231 Vector (0.05 µM); 1.15 ± 0.024 with MDA-MB-231 Vector (0.5 µM); 1.01 ± 0.21 in the assay with MDA-MB-231 Vector (5 µM). Also, the cell viability with MDA-MB-231 tGLI1 (0.05 µM) turned out to be 1.13 ± 0.029; in the assay on MDA-MB-231 tGLI1 (0.5 µM), 1.22 ± 0.15; in the assay on MDA-MB-231 tGLI1 (5 µM) it was 0.997 ± 0.22; in the assay on MDA-MB-231BRM GLI1 (0.05 µM) it was 0.973 ± 0.041; with MDA-MB-231BRM GLI1 (0.5 µM) it was 0.879 ± 0.064; in the assay on MDA-MB-231BRM GLI1 (5 µM), 0.799 ± 0.076. In addition, the cell viability with MDA-MB-231BRM Vector (0.05 µM) is 0.967 ± 0.047; in the assay with MDA-MB-231BRM Vector (0.5 µM) it was 0.902 ± 0.07; in the assay on MDA-MB-231BRM Vector (5 µM) it was 0.821 ± 0.028; in the assay on MDA-MB-231BRM tGLI1 (0.05 µM) it was 0.965 ± 0.12; with MDA-MB-231BRM tGLI1 (0.5 µM) it was 0.947 ± 0.042; with MDA-MB-231BRM tGLI1 (5 µM), 0.837 ± 0.024.

For the compound `COc1cc2ncnc(Nc3ccc(O)c(Br)c3)c2cc1OC`, the cell viability is 0.586 with MDA-MB-231 GLI1 (0.05 µM); 1.1 in the assay with MDA-MB-231 GLI1 (0.5 µM); 0.598 with MDA-MB-231 GLI1 (5 µM); 1.08 in the assay on MDA-MB-231 Vector (0.05 µM); 1.17 with MDA-MB-231 Vector (0.5 µM); 0.773 with MDA-MB-231 Vector (5 µM). Besides, the cell viability in the assay with MDA-MB-231 tGLI1 (0.05 µM) came out at 0.878; with MDA-MB-231 tGLI1 (0.5 µM) it was 1.23; in the assay on MDA-MB-231 tGLI1 (5 µM) it was 0.78; in the assay with MDA-MB-231BRM GLI1 (0.05 µM) it was 0.977; in the assay on MDA-MB-231BRM GLI1 (0.5 µM), 0.913; with MDA-MB-231BRM GLI1 (5 µM) it was 0.863. The cell viability amounted to 1.07 with MDA-MB-231BRM Vector (0.05 µM); 1 in the assay with MDA-MB-231BRM Vector (0.5 µM); 0.869 with MDA-MB-231BRM Vector (5 µM); 1.02 in the assay on MDA-MB-231BRM tGLI1 (0.05 µM); 0.946 in the assay with MDA-MB-231BRM tGLI1 (0.5 µM); 0.914 with MDA-MB-231BRM tGLI1 (5 µM).

For `Nc1ncnc2c1c(-c1cnc3[nH]ccc3c1)nn2C1CCCC1`, the cell viability with MDA-MB-231 GLI1 (0.05 µM) came to 1.07; in the assay on MDA-MB-231 GLI1 (0.5 µM), 0.433; in the assay with MDA-MB-231 GLI1 (5 µM), 0.0199; with MDA-MB-231 Vector (0.05 µM), 0.987; with MDA-MB-231 Vector (0.5 µM), 0.284; with MDA-MB-231 Vector (5 µM) it was 0.0403. The cell viability in the assay with MDA-MB-231 tGLI1 (0.05 µM) was 1.33; with MDA-MB-231 tGLI1 (0.5 µM), 0.437; in the assay on MDA-MB-231 tGLI1 (5 µM), -0.0041; in the assay on MDA-MB-231BRM GLI1 (0.05 µM) it was 0.921; in the assay on MDA-MB-231BRM GLI1 (0.5 µM), 0.957; with MDA-MB-231BRM GLI1 (5 µM), 0.642. Moreover, the cell viability in the assay with MDA-MB-231BRM Vector (0.05 µM) was found to be 1.05; in the assay on MDA-MB-231BRM Vector (0.5 µM), 1; in the assay with MDA-MB-231BRM Vector (5 µM) it was 0.626; in the assay with MDA-MB-231BRM tGLI1 (0.05 µM), 1.09; with MDA-MB-231BRM tGLI1 (0.5 µM) it was 0.942; in the assay with MDA-MB-231BRM tGLI1 (5 µM), 0.596.

As for `O=C(NC(NC(=S)Nc1ccc(F)c([N+](=O)[O-])c1)C(Cl)(Cl)Cl)C(c1ccccc1)c1ccccc1` (stereo not drawn), the cell viability amounted to 1.47 in the assay on MDA-MB-231 GLI1 (0.05 µM); 1.7 in the assay with MDA-MB-231 GLI1 (0.5 µM); 0.0712 in the assay on MDA-MB-231 GLI1 (5 µM); 1.43 in the assay with MDA-MB-231 Vector (0.05 µM); 1.38 with MDA-MB-231 Vector (0.5 µM); 0.413 with MDA-MB-231 Vector (5 µM). Moreover, the cell viability with MDA-MB-231 tGLI1 (0.05 µM) was found to be 1.44; in the assay on MDA-MB-231 tGLI1 (0.5 µM), 1.45; with MDA-MB-231 tGLI1 (5 µM) it was 0.0981; in the assay with MDA-MB-231BRM GLI1 (0.05 µM), 1.13; with MDA-MB-231BRM GLI1 (0.5 µM), 0.998; with MDA-MB-231BRM GLI1 (5 µM), 0.774. The cell viability in the assay with MDA-MB-231BRM Vector (0.05 µM) is 1.15; in the assay on MDA-MB-231BRM Vector (0.5 µM) it was 1.06; with MDA-MB-231BRM Vector (5 µM), 0.777; in the assay with MDA-MB-231BRM tGLI1 (0.05 µM), 1.04; in the assay with MDA-MB-231BRM tGLI1 (0.5 µM), 0.985; in the assay on MDA-MB-231BRM tGLI1 (5 µM), 0.795.

As to `CN1CCN(Cc2ccc(-c3cnc4[nH]cc(-c5ccc6[nH]ccc6c5)c4c3)cc2)CC1`, the cell viability in the assay with MDA-MB-231 GLI1 (0.05 µM) stood at 1.11; in the assay on MDA-MB-231 GLI1 (0.5 µM) it was 1.58; with MDA-MB-231 GLI1 (5 µM) it was 1.07; in the assay on MDA-MB-231 Vector (0.05 µM), 0.914; in the assay on MDA-MB-231 Vector (0.5 µM), 1.06; in the assay on MDA-MB-231 Vector (5 µM) it was 1.32. Moreover, the cell viability in the assay on MDA-MB-231 tGLI1 (0.05 µM) stood at 1.13; in the assay with MDA-MB-231 tGLI1 (0.5 µM), 1.11; in the assay on MDA-MB-231 tGLI1 (5 µM), 1.24; in the assay with MDA-MB-231BRM GLI1 (0.05 µM), 1.11; in the assay with MDA-MB-231BRM GLI1 (0.5 µM) it was 0.972; with MDA-MB-231BRM GLI1 (5 µM) it was 0.916. Moreover, the cell viability came out at 1.07 with MDA-MB-231BRM Vector (0.05 µM); 1.07 in the assay on MDA-MB-231BRM Vector (0.5 µM); 0.891 in the assay on MDA-MB-231BRM Vector (5 µM); 1.14 in the assay on MDA-MB-231BRM tGLI1 (0.05 µM); 0.967 with MDA-MB-231BRM tGLI1 (0.5 µM); 0.876 in the assay with MDA-MB-231BRM tGLI1 (5 µM).
